Tested on: mice
Assay: Behavioral Despair Test (Porsolt swim test) in mice
Type: in vivo

Structure (SMILES) | Dunnett test vs vehicle, immobility duration (0.03 mg/kg intraperitoneal) | Dunnett test vs vehicle, immobility duration (0.1 mg/kg intraperitoneal) | Dunnett test vs vehicle, immobility duration (0.3 mg/kg intraperitoneal) | Dunnett test vs vehicle, immobility duration (1 mg/kg intraperitoneal) | Dunnett test vs vehicle, immobility duration (3 mg/kg intraperitoneal) | Dunnett test vs vehicle, immobility duration (10 mg/kg)
N[C@@H]1CC[C@@H](c2ccc(Cl)c(Cl)c2)c2ccccc21 [P, (1R,4S)-trans 4-(3,4-dichlorophenyl)-1,2,3,4-tetrahydro-1-napthalenamine] | ns | * (* indicates a significant difference vs vehicle for P < 0.05 (Dunnett test)) | * (* indicates a significant difference vs vehicle for P < 0.05 (Dunnett test)) | * (* indicates a significant difference vs vehicle for P < 0.05 (Dunnett test)) | * (* indicates a significant difference vs vehicle for P < 0.05 (Dunnett test)) | 
CN(C)CCCN1c2ccccc2CCc2ccccc21 [imipramine] |  |  |  |  |  | * (* indicates a significant difference vs vehicle for P < 0.05 (Dunnett test))
